Assay results taken from US20030181436A1, “Treatment for AIDS, HIV, and other related diseases and compounds for use therewith” (priority 2001, published 2003).
Some entries share one result that the patent states for a list of compounds.

Test system: HIV
Assay: Antiviral activity in acutely infected PBMCs (previous studies)
Assay type: cell-based

## Zinc Iodiscorbate [Compound Z]
  IC50: below 50 μg/ml
